Experimental data: paper PMC10681723
No constants are given. Whether binding was seen depends on the method and setting. Binding seen in cells or lysates may run through a third protein. These calls come from enrichment with a bait or labelling near it, and not all partners need be listed.

Sequences of proteins named here, by UniProt entry; tags and fusion partners are left off.
UniProt P32558: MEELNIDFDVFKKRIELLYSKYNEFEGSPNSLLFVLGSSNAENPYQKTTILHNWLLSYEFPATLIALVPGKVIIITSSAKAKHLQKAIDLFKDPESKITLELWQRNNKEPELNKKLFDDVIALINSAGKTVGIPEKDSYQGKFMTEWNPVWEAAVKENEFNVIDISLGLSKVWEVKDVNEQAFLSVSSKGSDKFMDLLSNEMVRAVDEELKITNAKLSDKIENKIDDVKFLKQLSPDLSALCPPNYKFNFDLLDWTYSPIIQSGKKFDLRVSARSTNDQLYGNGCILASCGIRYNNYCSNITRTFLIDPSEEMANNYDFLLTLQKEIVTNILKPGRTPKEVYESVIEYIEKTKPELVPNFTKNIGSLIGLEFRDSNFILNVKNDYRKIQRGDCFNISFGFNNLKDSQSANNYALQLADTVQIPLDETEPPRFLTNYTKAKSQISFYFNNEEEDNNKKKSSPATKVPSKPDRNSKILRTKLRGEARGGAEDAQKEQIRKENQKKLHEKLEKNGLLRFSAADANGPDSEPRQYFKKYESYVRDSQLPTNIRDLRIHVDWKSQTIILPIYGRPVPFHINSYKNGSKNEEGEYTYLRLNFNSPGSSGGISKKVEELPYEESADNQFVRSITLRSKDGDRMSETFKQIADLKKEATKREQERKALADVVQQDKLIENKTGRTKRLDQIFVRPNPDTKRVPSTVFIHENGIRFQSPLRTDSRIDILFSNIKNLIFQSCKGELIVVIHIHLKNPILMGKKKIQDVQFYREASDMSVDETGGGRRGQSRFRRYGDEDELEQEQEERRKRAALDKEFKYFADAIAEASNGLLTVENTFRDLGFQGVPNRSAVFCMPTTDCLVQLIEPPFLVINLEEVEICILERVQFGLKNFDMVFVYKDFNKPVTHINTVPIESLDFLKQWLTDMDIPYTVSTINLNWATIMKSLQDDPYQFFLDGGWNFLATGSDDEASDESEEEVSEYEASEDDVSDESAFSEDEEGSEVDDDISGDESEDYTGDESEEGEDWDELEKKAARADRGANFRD
UniProt P24279: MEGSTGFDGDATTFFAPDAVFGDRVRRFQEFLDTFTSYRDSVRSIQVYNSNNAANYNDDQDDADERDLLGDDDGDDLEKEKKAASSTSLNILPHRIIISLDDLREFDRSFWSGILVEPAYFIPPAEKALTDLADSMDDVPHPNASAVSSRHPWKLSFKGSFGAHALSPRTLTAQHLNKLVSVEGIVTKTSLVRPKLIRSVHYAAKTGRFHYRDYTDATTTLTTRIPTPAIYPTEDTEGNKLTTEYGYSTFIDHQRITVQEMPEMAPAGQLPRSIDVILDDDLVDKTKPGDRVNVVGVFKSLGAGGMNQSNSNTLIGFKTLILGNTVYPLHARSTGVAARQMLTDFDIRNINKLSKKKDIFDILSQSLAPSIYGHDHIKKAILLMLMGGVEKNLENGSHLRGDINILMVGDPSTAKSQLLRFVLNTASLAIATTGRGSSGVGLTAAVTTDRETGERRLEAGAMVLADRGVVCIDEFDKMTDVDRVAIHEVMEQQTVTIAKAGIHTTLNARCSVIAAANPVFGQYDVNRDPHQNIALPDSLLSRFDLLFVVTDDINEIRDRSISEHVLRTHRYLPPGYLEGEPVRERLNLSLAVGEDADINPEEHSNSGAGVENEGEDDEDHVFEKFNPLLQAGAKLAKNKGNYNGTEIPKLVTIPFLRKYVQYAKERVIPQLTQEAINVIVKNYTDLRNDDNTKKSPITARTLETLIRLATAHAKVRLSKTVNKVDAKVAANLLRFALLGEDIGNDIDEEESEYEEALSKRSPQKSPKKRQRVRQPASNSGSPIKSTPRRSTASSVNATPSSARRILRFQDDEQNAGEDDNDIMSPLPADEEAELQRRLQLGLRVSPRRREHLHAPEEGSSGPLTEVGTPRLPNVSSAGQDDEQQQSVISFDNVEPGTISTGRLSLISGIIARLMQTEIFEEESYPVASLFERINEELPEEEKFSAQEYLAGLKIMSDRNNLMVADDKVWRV
UniProt P29469: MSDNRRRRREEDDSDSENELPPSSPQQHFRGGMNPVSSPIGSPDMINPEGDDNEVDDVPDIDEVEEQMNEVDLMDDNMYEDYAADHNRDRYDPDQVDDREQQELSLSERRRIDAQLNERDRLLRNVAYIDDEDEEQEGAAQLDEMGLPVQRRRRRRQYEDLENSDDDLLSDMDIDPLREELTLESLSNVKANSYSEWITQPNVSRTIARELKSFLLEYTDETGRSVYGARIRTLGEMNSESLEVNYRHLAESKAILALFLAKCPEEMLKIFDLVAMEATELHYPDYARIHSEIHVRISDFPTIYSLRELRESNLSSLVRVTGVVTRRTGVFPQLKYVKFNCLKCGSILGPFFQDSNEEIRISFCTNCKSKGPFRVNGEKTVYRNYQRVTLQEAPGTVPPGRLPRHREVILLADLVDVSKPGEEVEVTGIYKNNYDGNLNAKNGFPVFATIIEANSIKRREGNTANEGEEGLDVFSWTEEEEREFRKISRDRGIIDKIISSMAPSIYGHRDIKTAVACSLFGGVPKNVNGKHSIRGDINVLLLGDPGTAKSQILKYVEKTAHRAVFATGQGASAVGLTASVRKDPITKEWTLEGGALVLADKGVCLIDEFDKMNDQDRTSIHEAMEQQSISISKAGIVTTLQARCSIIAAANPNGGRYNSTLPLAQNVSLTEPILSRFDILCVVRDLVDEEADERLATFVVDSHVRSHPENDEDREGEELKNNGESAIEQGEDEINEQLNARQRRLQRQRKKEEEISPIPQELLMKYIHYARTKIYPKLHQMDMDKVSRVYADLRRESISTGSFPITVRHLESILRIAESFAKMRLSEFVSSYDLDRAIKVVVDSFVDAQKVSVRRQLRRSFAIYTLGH
UniProt P53091: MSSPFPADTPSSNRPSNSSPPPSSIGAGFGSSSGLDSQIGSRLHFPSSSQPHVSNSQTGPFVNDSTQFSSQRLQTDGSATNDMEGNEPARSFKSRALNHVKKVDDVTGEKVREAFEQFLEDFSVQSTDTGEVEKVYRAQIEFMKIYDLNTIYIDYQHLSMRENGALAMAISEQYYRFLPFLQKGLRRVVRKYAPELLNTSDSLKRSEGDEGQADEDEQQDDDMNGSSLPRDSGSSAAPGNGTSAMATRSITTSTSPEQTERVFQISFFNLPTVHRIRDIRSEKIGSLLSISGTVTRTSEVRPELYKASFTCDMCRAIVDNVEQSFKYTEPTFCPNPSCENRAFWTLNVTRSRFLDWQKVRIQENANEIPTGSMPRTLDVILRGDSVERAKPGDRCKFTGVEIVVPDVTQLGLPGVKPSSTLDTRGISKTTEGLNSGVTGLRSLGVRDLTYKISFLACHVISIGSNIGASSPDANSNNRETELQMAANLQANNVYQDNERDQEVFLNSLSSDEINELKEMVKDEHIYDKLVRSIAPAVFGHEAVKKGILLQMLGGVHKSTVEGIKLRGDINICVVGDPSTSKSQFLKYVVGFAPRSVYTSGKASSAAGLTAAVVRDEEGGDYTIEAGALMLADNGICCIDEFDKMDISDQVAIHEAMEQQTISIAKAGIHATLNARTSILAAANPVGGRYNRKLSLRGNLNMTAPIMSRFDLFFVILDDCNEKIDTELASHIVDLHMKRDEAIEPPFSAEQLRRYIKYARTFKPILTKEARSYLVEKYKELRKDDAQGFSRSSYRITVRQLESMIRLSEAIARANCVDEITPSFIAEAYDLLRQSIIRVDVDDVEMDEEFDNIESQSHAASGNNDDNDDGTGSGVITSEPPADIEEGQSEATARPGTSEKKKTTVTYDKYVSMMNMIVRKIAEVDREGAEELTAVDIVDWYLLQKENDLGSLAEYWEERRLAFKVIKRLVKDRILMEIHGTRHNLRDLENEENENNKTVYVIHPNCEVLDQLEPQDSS

What follows are substances tested against TAP-tagged Spt16 (Spt16-TAP), wild type (budding yeast (S. cerevisiae)) (UniProt P32558) (assay: affinity purification with mass spectrometry; tandem affinity purification of wild-type Spt16 or Spt16-ΔN from yeast cells, SDS-PAGE, label-free quantitative mass spectrometry, n = 3).

| binding | Substance |
| --- | --- |
| binds | Mcm3 (from UniProt P24279 1-971) |
| binds | Mcm2 (from UniProt P29469 1-868) |
| binds | Mcm6 (from UniProt P53091 1-1017) |
